{
  "source": "patent EP2426213A1",
  "about": "“Marker for sunitnib resistance formation” (Max-Planck-Gesellschaft zur Förderung der Wissenschaften …, priority 2010, dated 2012)",
  "assay_in_all_cases": "Apoptosis LD50 in Sorafenib selected cell line",
  "format_in_all_cases": "cell-based, Human",
  "key": {"A704^NDes": {"tested_on": "A704^NDes", "conditions": "A704^NDes vs parental", "procedure": "The cells were treated with Sunitinb concentrations between 2.5 µM and 20 µM for 72 h and apoptosis was determined according to Nicoletti's procedure (Riccardi and Nicoletti 2006). BD CellQuest Pro software (Becton Dickinson) for subG1 peak detection was used to determine the extent of the apoptotic cell formation. Statistical evaluation of the half maximal lethal dose-(LD50) values was assessed by using SigmaPlot (Systat Software, Inc., version 10).\nTo determine the drug specificity of the selection process, we also established Sorafenib selected polyclonal cell populations using the same conditions."}, "A498^NDes": {"tested_on": "A498^NDes"}, "CAKI1^NDes": {"tested_on": "CAKI1^NDes"}, "CAKI2^NDes": {"tested_on": "CAKI2^NDes"}},
  "note": "At least one read-out could not be matched to a standard name with certainty.",
  "data": [
    {"smiles": "CNC(=O)c1cc(Oc2ccc(NC(=O)Nc3ccc(Cl)c(C(F)(F)F)c3)cc2)ccn1", "note": "[Sorafenib]", "values": [
      {"measurement": "differences in the Sorafenib LD50-values", "setting": "A704^NDes", "result": "no differences"},
      {"measurement": "differences in the Sorafenib LD50-values", "setting": "A498^NDes; A498^NDes vs parental", "result": "no differences"},
      {"measurement": "differences in the Sorafenib LD50-values", "setting": "CAKI1^NDes; CAKI1^NDes vs parental", "result": "no differences"},
      {"measurement": "differences in the Sorafenib LD50-values", "setting": "CAKI2^NDes; CAKI2^NDes vs parental", "result": "no differences"}
    ]},
    {"smiles": "CCN(CC)CCNC(=O)c1c(C)[nH]c(/C=C2\\C(=O)Nc3ccc(F)cc32)c1C", "note": "[Sunitinib]", "values": [
      {"measurement": "Sunitinib LD50-values in comparison to the parental cell lines", "setting": "A498^NDes; A498^NDes", "result": "similar"},
      {"measurement": "Sunitinib LD50-values in comparison to the parental cell lines", "setting": "CAKI1^NDes; CAKI1^NDes", "result": "similar"},
      {"measurement": "Sunitinib LD50-values in comparison to the parental cell lines", "setting": "CAKI2^NDes; CAKI2^NDes", "result": "similar"}
    ]}
  ]
}
